# Assay results published in PMC12040169 (PLOS Biology, 2025).
# This is one part of the list.
# System: T1, CTL2-GFP (C. trachomatis L2/434/Bu, GFP-expressing)
# T1 construct: L2/434/Bu, GFP-expressing
# Parameters: species or system HeLa; Intracellular C. trachomatis growth in HeLa cells, bulk GFP fluorescence relative to DMSO
# Settings: bulk GFP, single well; 28.5 h, 10 µM; inhibitor
row,SMILES,% of control remaining [%]
1,O=C(N/C(=C/c1ccccc1)C(=O)N1CCCCC1)c1ccccc1 [CBK261280],94.2186
2,CC1Cc2cc(C(O)CN3CCC4CCCCC4C3)ccc2N1S(C)(=O)=O (centres unmarked) [CBK286456],94.5016
3,O=C1CC2(CCC3C(C(=O)N4CCCC4)C32)Oc2ccccc21 (centres unmarked) [CBK284969],135.919
4,CN1C(=O)COc2ccccc2CCCC[C@@H]2[C@H]1CCCN2C(=O)CNS(C)(=O)=O [CBK292118],94.9727
5,CCOC(=O)C1CCCN(CCC(=O)Nc2cccc(C)c2)C1 (centres unmarked) [CBK264158C],94.4023
6,C[C@]12CN(Cc3ccccc3)C[C@H]1CNc1ccccc1C(=O)N2 [CBK282932],104.011
7,COc1cncc(-c2cncc(Nc3cc(OC)c(OC)c(OC)c3)n2)c1 [CBK065397],126.856
8,Cn1nc2c(cc1=O)CN(C(=O)c1ccc3cc[nH]c3c1)CC2 [CBK304343],70.983
9,CN1CCN(c2nc(-c3ccc4c(c3)CCCC(=O)N4)cs2)CC1 [CBK305600],103.78
10,Cc1ccc(CN(CCCn2ccnc2)Cc2nccn2C)s1 [CBK283137],113.649
11,CS(=O)(=O)N(CC(=O)Nc1ccccc1C(=O)N1CCCC1)c1cc(Cl)c(Cl)cc1Cl [CBK268826],112.534
12,O=C(Cn1cc(C(=O)NCC2(c3ccccc3Cl)CC2)ccc1=O)NC1CCCCC1 [CBK285985],122.468
13,COc1ccc(C)cc1S(=O)(=O)Nc1cc(N2CCNC(C(F)(F)F)C2)c2occc2c1 (centres unmarked) [CBK073818C],133.173
14,C[C@@H](c1ccccc1)n1c(=O)[nH]c2ncc(-c3cncc4ccccc34)nc21 [CBK064726],101.967
15,CCOCCC(=O)N/N=C(/C)c1ccc(Cl)s1 [CBK007454],108.81
16,O=S(=O)(c1ccccc1)C1CCCCO1 (centres unmarked) [CBK020284],144.566
17,COc1ccccc1-c1ccc(NS(=O)(=O)c2ccc3c(c2)CCC(=O)N3)cc1 [CBK286353],106.513
18,CCOc1ccc(NC(=O)C(=O)NC2CCCCC2)cc1 [CBK261822],117.872
19,CC(C)(C)COC(=O)N1CCC2(CC1)CC(=O)N(Cc1ccc(S(C)(=O)=O)cc1)C2=O [CBK155949],118.12
20,Cc1nc(CN2CCCN(S(=O)(=O)c3ccc(C(=O)c4ccccc4)cc3)CC2)c[nH]1 [CBK063029],93.8174
21,Cc1ccc(-c2noc([C@@H]3C[C@H](NC(=O)CCC(=O)O)CN3C)n2)cc1 [CBK288852],109.996
22,O=C(O)C1CC=C(Cl)CC1C(=O)Nc1ccc(Cl)cc1[N+](=O)[O-] (centres unmarked) [CBK265612],123.022
23,COc1ccccc1-c1noc(CN2CCCC(C(F)(F)F)C2)n1 (centres unmarked) [CBK305598],138.942
24,CCc1cc(C(=O)OC)c(NC(=O)CC2Nc3cccc4cccc(c34)NC2=O)s1 (centres unmarked) [CBK267563],140.797
25,CCC(O)Cn1nc(CCSC)nc1-c1ccc2[nH]ccc2c1 (centres unmarked) [CBK307526],109.386

# Reprinted at random: 2 records from the list
row,SMILES,% of control remaining [%]
12,O=C(Cn1cc(C(=O)NCC2(c3ccccc3Cl)CC2)ccc1=O)NC1CCCCC1 [CBK285985],122.468
8,Cn1nc2c(cc1=O)CN(C(=O)c1ccc3cc[nH]c3c1)CC2 [CBK304343],70.983

# Additional records

row,SMILES,% of control remaining [%]
1,N=C(SC1CC(=O)N(c2ccc(C(=O)O)cc2)C1=O)N1N=C(c2ccccc2)CC1c1ccccc1 (centres unmarked) [CBK262446],147.204
2,O=C(Nc1ccc(F)cc1F)Nc1cc(Cl)sc1Cl [CBK019967],117.619
3,CC(C)(C)c1cc(NC(=O)c2csc3c(C(F)(F)F)cc(N4CCN(Cc5ccccc5)CC4)nc23)no1 [CBK028962],101.954
4,CC1(C)CC(=O)C=C(C(=O)NCc2ccc3c(c2)OCO3)O1 [CBK153290],100
5,COc1ncccc1C(=O)Nc1c(C)noc1C [CBK200307],99.908
6,O=C(CSc1cnn[nH]1)Nc1ccc(F)cc1 [CBK270024],127.719
7,O=S(=O)(Nc1cc(NCCCN2CCOCC2)c2occc2c1)c1ccccc1C(F)(F)F [CBK067838C],62.0028
8,O=C(Oc1ccccc1)c1ccnc(Cl)c1 [CBK090322],128.625
9,CN1CCC(N2CCN(C(=O)Nc3cccnc3)CC2)CC1 [CBK156111],105.301
10,Cc1nc(C)c(-c2csc(Nc3ccc(C(=O)O)c(O)c3)n2)s1 [CBK267263],132.589
11,CCC(Oc1ccccc1)C(=O)Nc1cc(OC)c(Cl)cc1OC (centres unmarked) [CBK262235],98.1918
12,O=C(COc1ccc2oc3c(c2c1)CCCC3)Nc1cccc2cccnc12 [CBK266137],145.316
13,Cc1cc(C[C@@H]2COC[C@H]2NCc2c(F)cccc2Cl)on1 [CBK282994],131.025
14,COc1ccc(C(=O)NCCCc2nc3ccccc3[nH]2)cc1OC [CBK270018],87.0956
15,CC1CCCCN1Cc1ccc(-c2nnn(CC(=O)NCc3ccco3)n2)cc1 (centres unmarked) [CBK122002],100
16,O=C(O)CSc1nnc(-c2ccc(F)cc2)o1 [CBK068115],139.374
17,NCCCOc1cncc(N2CCCC2)n1 [CBK115603],97.0112
18,COC(=O)c1sc(NC(=O)C2CCCCC2C(=O)O)c(C(=O)OC)c1C (centres unmarked) [CBK265389],106.646
19,CCn1c(/C=C/C2=CCN(C)CC2)nc2ccccc21 [CBK283745],125.571
20,Cc1ccc(C)c(CSC2CCN(C3CCOCC3)C2=O)c1 (centres unmarked) [CBK304865],126.92
21,Cc1ccc(OCC(=O)NC(=S)Nc2cccc(-c3nc4ncccc4o3)c2C)cc1 [CBK263925],95.612
22,COc1ccc2c(ccn2S(=O)(=O)c2ccc(N3CCNCC3)c(C(F)(F)F)c2)c1 [CBK034033C],57.7864
23,O=C(O)c1ccc(CN2CCOC[C@H]2c2nc(-c3ccc(C(F)(F)F)cc3)c[nH]2)cc1 [CBK289317],107.054
24,CC(C)C(=O)Nc1ccc2nc(-c3ccoc3)c(-c3ccoc3)nc2c1 [CBK286304],116.271
25,O=C(c1ccccc1)n1c(=S)nc2n(c1=S)CCN2 [CBK021794],151.567
